Consider six molecules from paper PMC10441460, “Identification of Selective ATP-Competitive CMG Helicase Inhibitors for Cancer Intervention that Disrupt CMG-Replisome Function” (Research Square, 2023).

Amino acid sequences for entries named in this document (tags omitted).
UniProt P49736: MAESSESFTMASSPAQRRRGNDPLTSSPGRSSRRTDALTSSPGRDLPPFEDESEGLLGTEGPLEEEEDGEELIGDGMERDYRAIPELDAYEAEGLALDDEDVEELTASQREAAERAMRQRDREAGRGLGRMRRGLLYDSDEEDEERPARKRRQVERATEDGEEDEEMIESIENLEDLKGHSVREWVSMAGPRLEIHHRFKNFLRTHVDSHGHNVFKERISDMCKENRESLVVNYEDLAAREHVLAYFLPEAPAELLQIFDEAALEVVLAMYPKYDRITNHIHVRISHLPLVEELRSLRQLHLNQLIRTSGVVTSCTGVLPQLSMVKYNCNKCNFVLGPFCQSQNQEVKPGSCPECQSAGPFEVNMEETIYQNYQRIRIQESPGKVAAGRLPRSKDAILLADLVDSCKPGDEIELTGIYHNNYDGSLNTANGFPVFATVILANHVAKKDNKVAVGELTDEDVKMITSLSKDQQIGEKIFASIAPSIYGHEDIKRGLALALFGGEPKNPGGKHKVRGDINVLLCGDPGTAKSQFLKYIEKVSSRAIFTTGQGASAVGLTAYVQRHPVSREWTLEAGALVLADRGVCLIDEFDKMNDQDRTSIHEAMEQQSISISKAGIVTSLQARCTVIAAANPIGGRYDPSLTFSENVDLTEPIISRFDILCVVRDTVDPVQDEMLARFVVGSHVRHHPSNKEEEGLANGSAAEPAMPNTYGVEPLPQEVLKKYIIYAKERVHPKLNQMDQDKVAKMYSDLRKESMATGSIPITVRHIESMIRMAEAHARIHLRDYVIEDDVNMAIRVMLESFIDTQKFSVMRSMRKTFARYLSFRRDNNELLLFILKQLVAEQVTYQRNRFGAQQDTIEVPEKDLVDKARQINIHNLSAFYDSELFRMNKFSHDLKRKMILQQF

These are yes or no findings as the source states them, for the method shown. Binding seen in cells or lysates may run through a third protein. Some results given as binding are weak or reduced against the parent protein; the word gives no strength.

The target of test [1] is Flag-Mcm2 (human, ectopic) (human), P49736. Description: co-IP; nuclear extract of asynchronous HEK-293T cells stably expressing Flag-Mcm2, 200 mM potassium acetate, 0.01% Triton X-100, 4°C; IP with anti-Flag agarose (mouse IgG agarose control); beads incubated with DMSO for 30 min, washed, immunoblotted. Conditions: remark: other sources report otherwise.
Test [2] deals with T1, Psf1 (endogenous) (human (endogenous in HaCaT and HEK-293T)) (UniProt Q14691).
T1 sequence: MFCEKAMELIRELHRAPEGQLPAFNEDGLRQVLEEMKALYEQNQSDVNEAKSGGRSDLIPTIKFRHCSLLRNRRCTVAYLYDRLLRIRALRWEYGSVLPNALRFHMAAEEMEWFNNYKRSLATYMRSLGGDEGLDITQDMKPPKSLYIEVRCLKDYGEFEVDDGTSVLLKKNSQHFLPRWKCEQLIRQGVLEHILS
As to the kind of experiment: co-IP; as a2, but the beads with the immunoprecipitated complexes were incubated with 15 µM coumermycin-A1 (CA1) for 30 min, washed, immunoblotted.

In test [3] the target is T1, Psf1 (endogenous) (human (endogenous in HaCaT and HEK-293T)). As to the kind of experiment: co-IP; nuclear extract of synchronized HaCaT cells (20 hrs after release, S-phase), 200 mM potassium acetate, 0.01% Triton X-100, 4°C; IP with anti-Psf1 or anti-Mcm2 (IgG control), protein A/G agarose; beads incubated with DMSO for 30 min, washed, immunoblotted.
The target in test [4] is Mcm2 (endogenous) (human (endogenous in HaCaT)) (UniProt P49736). Description: condition: only with 15 µM CA1 on the immunoprecipitated complexes for 30 min; co-IP; as a2, but the beads with the immunoprecipitated complexes were incubated with 15 µM coumermycin-A1 (CA1) for 30 min, washed, immunoblotted.
In test [5] the target is Flag-Mcm2 (human, ectopic) (human) (UniProt P49736). Description: condition: only with 15 µM CA1 on the immunoprecipitated complexes for 30 min; co-IP; as a4, but the beads with the immunoprecipitated complexes were incubated with 15 µM coumermycin-A1 (CA1) for 30 min, washed, immunoblotted.
Test [6] has the same target. As to the kind of experiment: co-IP; nuclear extract of asynchronous HEK-293T cells stably expressing Flag-Mcm2, 200 mM potassium acetate, 0.01% Triton X-100, 4°C; IP with anti-Flag agarose (mouse IgG agarose control); beads incubated with DMSO for 30 min, washed, immunoblotted.
Test [7] addresses Mcm2 (endogenous) (human (endogenous in HaCaT)) (UniProt P49736). Description: co-IP; nuclear extract of synchronized HaCaT cells (20 hrs after release, S-phase), 200 mM potassium acetate, 0.01% Triton X-100, 4°C; IP with anti-Psf1 or anti-Mcm2 (IgG control), protein A/G agarose; beads incubated with DMSO for 30 min, washed, immunoblotted.
Test [8] addresses T1, Psf1 (endogenous) (human (endogenous in HaCaT and HEK-293T)). As to the kind of experiment: condition: only with 15 µM CA1 on the immunoprecipitated complexes for 30 min; co-IP; as a2, but the beads with the immunoprecipitated complexes were incubated with 15 µM coumermycin-A1 (CA1) for 30 min, washed, immunoblotted.

B1: Ctf4 (endogenous), O75717 1-1129 (protein)
chain: MPATRKPMRYGHTEGHTEVCFDDSGSFIVTCGSDGDVRIWEDLDDDDPKFINVGEKAYSCALKSGKLVTAVSNNTIQVHTFPEGVPDGILTRFTTNANHVVFNGDGTKIAAGSSDFLVKIVDVMDSSQQKTFRGHDAPVLSLSFDPKDIFLASASCDGSVRVWQISDQTCAISWPLLQKCNDVINAKSICRLAWQPKSGKLLAIPVEKSVKLYRRESWSHQFDLSDNFISQTLNIVTWSPCGQYLAAGSINGLIIVWNVETKDCMERVKHEKGYAICGLAWHPTCGRISYTDAEGNLGLLENVCDPSGKTSSSKVSSRVEKDYNDLFDGDDMSNAGDFLNDNAVEIPSFSKGIINDDEDDEDLMMASGRPRQRSHILEDDENSVDISMLKTGSSLLKEEEEDGQEGSIHNLPLVTSQRPFYDGPMPTPRQKPFQSGSTPLHLTHRFMVWNSIGIIRCYNDEQDNAIDVEFHDTSIHHATHLSNTLNYTIADLSHEAILLACESTDELASKLHCLHFSSWDSSKEWIIDLPQNEDIEAICLGQGWAAAATSALLLRLFTIGGVQKEVFSLAGPVVSMAGHGEQLFIVYHRGTGFDGDQCLGVQLLELGKKKKQILHGDPLPLTRKSYLAWIGFSAEGTPCYVDSEGIVRMLNRGLGNTWTPICNTREHCKGKSDHYWVVGIHENPQQLRCIPCKGSRFPPTLPRPAVAILSFKLPYCQIATEKGQMEEQFWRSVIFHNHLDYLAKNGYEYEESTKNQATKEQQELLMKMLALSCKLEREFRCVELADLMTQNAVNLAIKYASRSRKLILAQKLSELAVEKAAELTATQVEEEEEEEDFRKKLNAGYSNTATEWSQPRFRNQVEEDAEDSGEADDEEKPEIHKPGQNSFSKSTNSSDVSAKSGAVTFSSQGRVNPFKVSASSKEPAMSMNSARSTNILDNMGKSSKKSTALSRTTNNEKSPIIKPLIPKPKPKQASAASYFQKRNSQTNKTEEVKEENLKNVLSETPAICPPQNTENQRPKTGFQMWLEENRSNILSDNPDFSDEADIIKEGMIRFRVLSTEERKVWANKAKGETASEGTEAKKRKRVVDESDETENQEEKAKENLNLSKKQKPLDFSTNQKLSAFAFKQE
Take B1: the binding result in test [1] is “binds”.

B2: Psf2 (endogenous) (protein, UniProt Q9Y248 1-185)
chain: MDAAEVEFLAEKELVTIIPNFSLDKIYLIGGDLGPFNPGLPVEVPLWLAINLKQRQKCRLLPPEWMDVEKLEKMRDHERKEETFTPMPSPYYMELTKLLLNHASDNIPKADEIRTLVKDMWDTRIAKLRVSADSFVRQQEAHAKLDNLTLMEINTSGTFLTQALNHMYKLRTNLQPLESTQSQDF
Take B2: the binding entry in test [2] and in test [3] was “binds” each time.

B3: Cdc45 (endogenous) (protein, UniProt O75419 1-566)
chain: MFVSDFRKEFYEVVQSQRVLLFVASDVDALCACKILQALFQCDHVQYTLVPVSGWQELETAFLEHKEQFHYFILINCGANVDLLDILQPDEDTIFFVCDTHRPVNVVNVYNDTQIKLLIKQDDDLEVPAYEDIFRDEEEDEEHSGNDSDGSEPSEKRTRLEEEIVEQTMRRRQRREWEARRRDILFDYEQYEYHGTSSAMVMFELAWMLSKDLNDMLWWAIVGLTDQWVQDKITQMKYVTDVGVLQRHVSRHNHRNEDEENTLSVDCTRISFEYDLRLVLYQHWSLHDSLCNTSYTAARFKLWSVHGQKRLQEFLADMGLPLKQVKQKFQAMDISLKENLREMIEESANKFGMKDMRVQTFSIHFGFKHKFLASDVVFATMSLMESPEKDGSGTDHFIQALDSLSRSNLDKLYHGLELAKKQLRATQQTIASCLCTNLVISQGPFLYCSLMEGTPDVMLFSRPASLSLLSKHLLKSFVCSTKNRRCKLLPLVMAAPLSMEHGTVTVVGIPPETDSSDRKNFFGRAFEKAAESTSSRMLHNHFDLSVIELKAEDRSKFLDALISLLS
Regarding B3, the binding result in test [4] is listed as “no binding”; in test [5], “no binding”; in test [6] it was “binds”; in test [7], “binds”.

B4: Psf1 (endogenous) (protein, UniProt Q14691 1-196)
chain: MFCEKAMELIRELHRAPEGQLPAFNEDGLRQVLEEMKALYEQNQSDVNEAKSGGRSDLIPTIKFRHCSLLRNRRCTVAYLYDRLLRIRALRWEYGSVLPNALRFHMAAEEMEWFNNYKRSLATYMRSLGGDEGLDITQDMKPPKSLYIEVRCLKDYGEFEVDDGTSVLLKKNSQHFLPRWKCEQLIRQGVLEHILS
Regarding B4, the binding entry is recorded as “no binding” in test [5] and “binds” in test [6].

B5: Psf3 (endogenous) (protein, UniProt Q9BRX5 1-216)
chain: MSEAYFRVESGALGPEENFLSLDDILMSHEKLPVRTETAMPRLGAFFLERSAGAETDNAVPQGSKLELPLWLAKGLFDNKRRILSVELPKIYQEGWRTVFSADPNVVDLHKMGPHFYGFGSQLLHFDSPENADISQSLLQTFIGRFRRIMDSSQNAYNEDTSALVARLDEMERGLFQTGQKGLNDFQCWEKGQASQITASNLVQNYKKRKFTDMED
B5: the binding entry in test [2] and in test [3] was “binds” throughout.

B6: Mcm6 (endogenous) (protein, UniProt Q14566 1-821)
chain: MDLAAAAEPGAGSQHLEVRDEVAEKCQKLFLDFLEEFQSSDGEIKYLQLAEELIRPERNTLVVSFVDLEQFNQQLSTTIQEEFYRVYPYLCRALKTFVKDRKEIPLAKDFYVAFQDLPTRHKIRELTSSRIGLLTRISGQVVRTHPVHPELVSGTFLCLDCQTVIRDVEQQFKYTQPNICRNPVCANRRRFLLDTNKSRFVDFQKVRIQETQAELPRGSIPRSLEVILRAEAVESAQAGDKCDFTGTLIVVPDVSKLSTPGARAETNSRVSGVDGYETEGIRGLRALGVRDLSYRLVFLACCVAPTNPRFGGKELRDEEQTAESIKNQMTVKEWEKVFEMSQDKNLYHNLCTSLFPTIHGNDEVKRGVLLMLFGGVPKTTGEGTSLRGDINVCIVGDPSTAKSQFLKHVEEFSPRAVYTSGKASSAAGLTAAVVRDEESHEFVIEAGALMLADNGVCCIDEFDKMDVRDQVAIHEAMEQQTISITKAGVKATLNARTSILAAANPISGHYDRSKSLKQNINLSAPIMSRFDLFFILVDECNEVTDYAIARRIVDLHSRIEESIDRVYSLDDIRRYLLFARQFKPKISKESEDFIVEQYKHLRQRDGSGVTKSSWRITVRQLESMIRLSEAMARMHCCDEVQPKHVKEAFRLLNKSIIRVETPDVNLDQEEEIQMEVDEGAGGINGHADSPAPVNGINGYNEDINQESAPKASLRLGFSEYCRISNLIVLHLRKVEEEEDESALKRSELVNWYLKEIESEIDSEEELINKKRIIEKVIHRLTHYDHVLIELTQAGLKGSTEGSESYEEDPYLVVNPNYLLED
As to B6, the binding entry in test [8] is on record as “no binding”; in test [3] it was “binds”.
